Measurements as given in article PMC4554924.
Results are given in words; binding and its absence hold for the method and conditions named. For some of these results: Binding can be weak; no strength is given. For some of these results: Binding seen in cells or lysates may run through a third protein. Blank lines part the entries; values can stand above or below the molecule they belong to.

Amino acid sequences for entries named in this document (tags omitted). A change or cut given only in a name is not applied to a line headed by its entry.
UniProt Q86CS2: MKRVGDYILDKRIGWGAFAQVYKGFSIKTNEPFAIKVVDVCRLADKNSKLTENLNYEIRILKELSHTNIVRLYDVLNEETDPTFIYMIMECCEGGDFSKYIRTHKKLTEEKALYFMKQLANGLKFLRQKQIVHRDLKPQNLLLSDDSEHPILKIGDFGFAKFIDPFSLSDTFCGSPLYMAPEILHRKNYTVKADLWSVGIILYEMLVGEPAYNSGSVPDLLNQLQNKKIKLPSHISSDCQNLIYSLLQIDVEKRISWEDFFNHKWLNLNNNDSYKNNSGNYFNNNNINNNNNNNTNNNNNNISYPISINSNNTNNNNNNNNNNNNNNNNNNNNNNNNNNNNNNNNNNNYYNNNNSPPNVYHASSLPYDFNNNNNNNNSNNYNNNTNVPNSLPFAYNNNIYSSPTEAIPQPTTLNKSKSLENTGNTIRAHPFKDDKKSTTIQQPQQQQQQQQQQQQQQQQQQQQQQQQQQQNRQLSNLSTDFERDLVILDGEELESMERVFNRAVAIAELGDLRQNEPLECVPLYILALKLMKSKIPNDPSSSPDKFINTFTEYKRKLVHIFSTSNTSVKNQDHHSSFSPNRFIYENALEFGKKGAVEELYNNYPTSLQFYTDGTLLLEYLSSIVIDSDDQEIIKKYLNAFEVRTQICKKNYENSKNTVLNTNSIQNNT
UniProt Q556J0: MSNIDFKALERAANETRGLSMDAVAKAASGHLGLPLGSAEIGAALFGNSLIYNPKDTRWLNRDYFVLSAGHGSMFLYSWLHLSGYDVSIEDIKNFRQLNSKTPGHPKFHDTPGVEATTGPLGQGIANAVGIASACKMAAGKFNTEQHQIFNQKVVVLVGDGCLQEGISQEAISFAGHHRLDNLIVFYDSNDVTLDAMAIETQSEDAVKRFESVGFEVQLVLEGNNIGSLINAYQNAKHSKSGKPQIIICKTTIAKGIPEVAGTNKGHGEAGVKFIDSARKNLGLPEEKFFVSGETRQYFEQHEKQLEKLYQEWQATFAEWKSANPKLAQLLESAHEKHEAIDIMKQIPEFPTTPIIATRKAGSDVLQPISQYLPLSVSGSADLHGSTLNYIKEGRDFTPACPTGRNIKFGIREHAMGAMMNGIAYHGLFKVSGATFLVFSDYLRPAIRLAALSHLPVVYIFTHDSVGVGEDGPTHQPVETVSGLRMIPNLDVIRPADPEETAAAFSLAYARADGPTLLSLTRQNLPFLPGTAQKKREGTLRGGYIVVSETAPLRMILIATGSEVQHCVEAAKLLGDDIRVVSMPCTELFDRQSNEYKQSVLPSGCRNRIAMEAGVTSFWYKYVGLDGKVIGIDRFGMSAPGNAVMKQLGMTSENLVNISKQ

What was measured:
[1] = target: GFP-Atg1 (Dictyostelium discoideum) (UniProt Q86CS2); assay: pull-down; GFP-trap beads on extracts of Dictyostelium cells co-expressing the GFP- and HA-tagged proteins; 10 mM Tris/HCl pH 7.5, 150 mM NaCl, 0.5 mM EDTA, overnight at 4°C; anti-HA Western blot
[2] = target: T1, putative Atg17 (DDB_G0295673) (Dictyostelium discoideum) (UniProt B0G140); assay: two-hybrid; pairwise analysis: atg genes in pACT2 and pLexA(1-202)+PL, S. cerevisiae TAT7
T1 sequence: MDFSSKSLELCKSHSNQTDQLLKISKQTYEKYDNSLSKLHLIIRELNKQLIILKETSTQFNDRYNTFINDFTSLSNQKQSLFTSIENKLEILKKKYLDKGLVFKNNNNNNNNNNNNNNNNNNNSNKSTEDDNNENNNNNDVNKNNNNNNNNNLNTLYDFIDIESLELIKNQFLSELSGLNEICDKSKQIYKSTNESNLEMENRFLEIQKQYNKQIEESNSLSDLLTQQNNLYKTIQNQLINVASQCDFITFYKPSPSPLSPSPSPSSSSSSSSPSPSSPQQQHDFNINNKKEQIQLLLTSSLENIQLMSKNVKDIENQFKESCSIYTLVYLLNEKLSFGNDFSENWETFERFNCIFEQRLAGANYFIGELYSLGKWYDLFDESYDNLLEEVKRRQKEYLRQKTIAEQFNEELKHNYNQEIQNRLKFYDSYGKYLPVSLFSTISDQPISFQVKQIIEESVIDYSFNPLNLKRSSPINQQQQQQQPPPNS

[3] = target: Atg16 (Dictyostelium discoideum); assay: as above
[4] = target: Atg101 (DDB_G0288287) (Dictyostelium discoideum) (UniProt Q54J54); assay: as above

binding [1]: binds
Molecule: TKT fused with the HA epitope (TKT-HA) (from UniProt Q556J0) (enzyme)

binding [2]: no binding
Molecule: putative FIP200, renamed AreB (DDB_G0268498) (Dictyostelium discoideum)

binding [3]: binds
B1: Atg5 (protein, UniProt Q54GT9 1-398)
chain: MSSFDEDIKRSIWEGKIPIVFTLSPDDLTSHLSPSPYTLMAPRNSYFPLITSLVKDYFSSSTLVLLDEMWLEYRGIPLKWHLPIGVLYDTIVGNNNCNNSNNNNNNNNNNNNNNNNNNNNNNNNNNNNNNNNNNNNNNNNNNNNNNNIIMEQPYWNIVVHFQSYPDRILLRCPNIESVRTYYKNVLKEANFIKQGDITKINNLNINQSNDLWDGLKSHDYDKFWSVNKKLIPNSNKEYKNIPIRLIINYKPPIQELIPVFDENLVELTLENLFSRIPYESFSNFLNYNNNNNNNNINNNSPPLSPNSNNNNNNNNVDNSIENSLNQTNVESAEPEFSNLLQYIKATNAEYKIQGIQPSLKSSAVWLYEHFGHPDNFLYIVLIDPSQNNNNNNNNSNNY

binding [4]: no binding
B2: putative Atg17 (DDB_G0295673) (protein, UniProt B0G140 1-488)
chain: MDFSSKSLELCKSHSNQTDQLLKISKQTYEKYDNSLSKLHLIIRELNKQLIILKETSTQFNDRYNTFINDFTSLSNQKQSLFTSIENKLEILKKKYLDKGLVFKNNNNNNNNNNNNNNNNNNNSNKSTEDDNNENNNNNDVNKNNNNNNNNNLNTLYDFIDIESLELIKNQFLSELSGLNEICDKSKQIYKSTNESNLEMENRFLEIQKQYNKQIEESNSLSDLLTQQNNLYKTIQNQLINVASQCDFITFYKPSPSPLSPSPSPSSSSSSSSPSPSSPQQQHDFNINNKKEQIQLLLTSSLENIQLMSKNVKDIENQFKESCSIYTLVYLLNEKLSFGNDFSENWETFERFNCIFEQRLAGANYFIGELYSLGKWYDLFDESYDNLLEEVKRRQKEYLRQKTIAEQFNEELKHNYNQEIQNRLKFYDSYGKYLPVSLFSTISDQPISFQVKQIIEESVIDYSFNPLNLKRSSPINQQQQQQQPPPNS
